Experimental data: the supplement of paper PMC10849652
This is one part of the list.

Amino acid sequences for entries named in this document (tags omitted). A change or cut given only in a name is not applied to a line headed by its entry.
UniProt Q10567: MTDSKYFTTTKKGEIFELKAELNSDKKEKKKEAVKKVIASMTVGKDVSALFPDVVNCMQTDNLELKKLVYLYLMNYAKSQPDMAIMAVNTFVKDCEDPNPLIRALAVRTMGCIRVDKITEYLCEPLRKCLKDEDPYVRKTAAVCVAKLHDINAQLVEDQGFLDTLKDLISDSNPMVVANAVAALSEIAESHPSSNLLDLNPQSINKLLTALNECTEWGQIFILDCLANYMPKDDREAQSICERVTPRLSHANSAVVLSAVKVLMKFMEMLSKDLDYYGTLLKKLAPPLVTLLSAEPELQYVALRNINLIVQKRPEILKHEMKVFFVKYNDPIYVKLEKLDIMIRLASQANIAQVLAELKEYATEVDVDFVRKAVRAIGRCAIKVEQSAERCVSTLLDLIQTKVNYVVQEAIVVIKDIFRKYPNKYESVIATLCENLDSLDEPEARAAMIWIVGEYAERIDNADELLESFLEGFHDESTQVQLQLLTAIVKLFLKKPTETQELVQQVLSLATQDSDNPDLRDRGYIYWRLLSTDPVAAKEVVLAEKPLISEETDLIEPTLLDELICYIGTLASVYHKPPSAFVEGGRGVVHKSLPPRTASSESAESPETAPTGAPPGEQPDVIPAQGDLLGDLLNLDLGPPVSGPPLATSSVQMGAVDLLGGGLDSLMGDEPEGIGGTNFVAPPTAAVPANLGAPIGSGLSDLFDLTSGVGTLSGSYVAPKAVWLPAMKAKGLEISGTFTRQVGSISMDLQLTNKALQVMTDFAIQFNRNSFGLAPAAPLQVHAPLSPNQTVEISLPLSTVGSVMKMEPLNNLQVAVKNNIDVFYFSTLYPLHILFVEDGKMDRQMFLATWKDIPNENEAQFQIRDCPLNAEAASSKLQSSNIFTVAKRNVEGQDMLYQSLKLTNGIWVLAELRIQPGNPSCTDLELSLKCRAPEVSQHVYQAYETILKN
UniProt Q9Y6B7: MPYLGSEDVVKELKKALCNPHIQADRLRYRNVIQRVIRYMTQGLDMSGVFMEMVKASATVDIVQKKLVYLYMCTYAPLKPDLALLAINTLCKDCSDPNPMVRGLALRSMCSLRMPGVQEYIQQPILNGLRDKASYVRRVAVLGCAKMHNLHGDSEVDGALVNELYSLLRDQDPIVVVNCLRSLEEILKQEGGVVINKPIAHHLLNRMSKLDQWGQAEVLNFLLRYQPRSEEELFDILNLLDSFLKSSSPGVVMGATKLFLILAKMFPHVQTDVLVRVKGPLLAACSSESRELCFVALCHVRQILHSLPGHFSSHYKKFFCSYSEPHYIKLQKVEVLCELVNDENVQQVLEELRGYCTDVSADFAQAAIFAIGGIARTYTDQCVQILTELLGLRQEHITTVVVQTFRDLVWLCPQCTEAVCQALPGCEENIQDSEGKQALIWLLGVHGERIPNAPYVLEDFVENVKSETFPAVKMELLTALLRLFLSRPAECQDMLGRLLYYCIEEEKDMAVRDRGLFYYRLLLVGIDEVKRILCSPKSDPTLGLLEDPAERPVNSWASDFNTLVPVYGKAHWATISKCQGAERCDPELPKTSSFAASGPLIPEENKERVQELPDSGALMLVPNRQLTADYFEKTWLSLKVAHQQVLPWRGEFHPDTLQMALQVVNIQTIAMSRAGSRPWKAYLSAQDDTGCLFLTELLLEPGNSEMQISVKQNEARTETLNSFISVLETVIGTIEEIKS
UniProt Q9NXW9: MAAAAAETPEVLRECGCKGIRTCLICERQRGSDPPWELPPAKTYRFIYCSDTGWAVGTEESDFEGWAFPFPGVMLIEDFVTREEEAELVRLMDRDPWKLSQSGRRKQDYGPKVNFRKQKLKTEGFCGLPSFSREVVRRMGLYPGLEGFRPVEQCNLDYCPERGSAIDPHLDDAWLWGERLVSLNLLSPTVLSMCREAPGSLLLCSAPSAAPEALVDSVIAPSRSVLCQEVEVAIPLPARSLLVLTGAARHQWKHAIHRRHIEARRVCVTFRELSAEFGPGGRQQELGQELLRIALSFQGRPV
UniProt P17707: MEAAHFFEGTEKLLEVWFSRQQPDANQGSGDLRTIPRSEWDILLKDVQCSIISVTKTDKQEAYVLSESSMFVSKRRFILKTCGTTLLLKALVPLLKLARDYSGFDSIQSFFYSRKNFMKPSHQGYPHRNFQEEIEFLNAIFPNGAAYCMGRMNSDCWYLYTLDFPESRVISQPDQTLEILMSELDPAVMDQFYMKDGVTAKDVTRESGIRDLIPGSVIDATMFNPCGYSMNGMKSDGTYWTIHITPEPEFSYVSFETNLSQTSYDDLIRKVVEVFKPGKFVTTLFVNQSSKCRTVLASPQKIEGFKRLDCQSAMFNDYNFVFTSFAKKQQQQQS
UniProt Q9H1A4, whole entry, looked up: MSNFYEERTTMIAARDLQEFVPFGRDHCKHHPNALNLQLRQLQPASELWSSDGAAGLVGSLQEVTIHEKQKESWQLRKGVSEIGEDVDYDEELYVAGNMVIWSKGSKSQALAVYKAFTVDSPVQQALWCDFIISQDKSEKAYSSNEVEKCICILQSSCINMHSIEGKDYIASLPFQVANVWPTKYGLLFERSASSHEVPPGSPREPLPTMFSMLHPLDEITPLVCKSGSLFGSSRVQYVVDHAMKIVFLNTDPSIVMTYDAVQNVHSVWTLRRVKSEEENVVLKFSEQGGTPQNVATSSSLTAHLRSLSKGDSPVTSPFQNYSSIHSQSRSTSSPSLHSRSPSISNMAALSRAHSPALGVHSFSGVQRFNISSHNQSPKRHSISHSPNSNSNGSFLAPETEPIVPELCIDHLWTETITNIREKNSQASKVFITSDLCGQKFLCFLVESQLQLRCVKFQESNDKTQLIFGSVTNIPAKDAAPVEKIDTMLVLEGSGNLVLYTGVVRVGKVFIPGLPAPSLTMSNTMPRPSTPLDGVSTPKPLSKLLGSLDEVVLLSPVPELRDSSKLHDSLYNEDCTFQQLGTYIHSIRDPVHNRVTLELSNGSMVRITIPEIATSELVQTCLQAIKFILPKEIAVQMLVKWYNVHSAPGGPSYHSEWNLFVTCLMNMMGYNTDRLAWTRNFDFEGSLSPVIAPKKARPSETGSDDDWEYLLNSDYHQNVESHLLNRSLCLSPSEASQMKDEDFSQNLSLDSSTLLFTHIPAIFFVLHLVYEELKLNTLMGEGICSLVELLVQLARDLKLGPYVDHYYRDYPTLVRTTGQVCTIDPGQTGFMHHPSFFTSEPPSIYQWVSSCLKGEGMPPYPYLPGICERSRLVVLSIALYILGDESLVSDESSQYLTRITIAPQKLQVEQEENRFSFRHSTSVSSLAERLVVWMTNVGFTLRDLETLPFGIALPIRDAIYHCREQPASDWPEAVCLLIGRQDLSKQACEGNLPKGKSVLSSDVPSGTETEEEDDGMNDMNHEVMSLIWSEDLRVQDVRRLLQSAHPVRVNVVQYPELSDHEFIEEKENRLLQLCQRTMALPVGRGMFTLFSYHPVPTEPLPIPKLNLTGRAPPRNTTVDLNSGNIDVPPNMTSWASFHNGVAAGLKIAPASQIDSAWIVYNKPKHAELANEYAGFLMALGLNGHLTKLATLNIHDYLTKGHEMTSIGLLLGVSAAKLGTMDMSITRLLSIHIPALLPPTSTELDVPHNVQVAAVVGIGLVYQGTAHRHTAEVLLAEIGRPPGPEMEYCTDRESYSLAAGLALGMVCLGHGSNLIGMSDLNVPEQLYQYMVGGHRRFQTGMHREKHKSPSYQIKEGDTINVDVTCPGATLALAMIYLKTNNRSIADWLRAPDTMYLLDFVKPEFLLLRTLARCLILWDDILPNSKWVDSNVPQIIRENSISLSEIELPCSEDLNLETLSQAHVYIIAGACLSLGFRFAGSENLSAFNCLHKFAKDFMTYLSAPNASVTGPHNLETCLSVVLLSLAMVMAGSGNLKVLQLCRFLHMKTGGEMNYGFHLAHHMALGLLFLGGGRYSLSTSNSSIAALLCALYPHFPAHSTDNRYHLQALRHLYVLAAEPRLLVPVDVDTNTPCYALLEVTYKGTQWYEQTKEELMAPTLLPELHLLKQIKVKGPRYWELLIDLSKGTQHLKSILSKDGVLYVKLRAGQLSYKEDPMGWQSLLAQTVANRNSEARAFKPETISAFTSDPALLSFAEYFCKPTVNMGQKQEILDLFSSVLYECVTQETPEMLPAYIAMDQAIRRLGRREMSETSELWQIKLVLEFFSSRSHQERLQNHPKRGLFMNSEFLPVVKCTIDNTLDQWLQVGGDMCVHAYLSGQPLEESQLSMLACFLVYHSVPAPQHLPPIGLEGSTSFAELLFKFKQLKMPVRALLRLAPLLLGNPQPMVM
UniProt P15144: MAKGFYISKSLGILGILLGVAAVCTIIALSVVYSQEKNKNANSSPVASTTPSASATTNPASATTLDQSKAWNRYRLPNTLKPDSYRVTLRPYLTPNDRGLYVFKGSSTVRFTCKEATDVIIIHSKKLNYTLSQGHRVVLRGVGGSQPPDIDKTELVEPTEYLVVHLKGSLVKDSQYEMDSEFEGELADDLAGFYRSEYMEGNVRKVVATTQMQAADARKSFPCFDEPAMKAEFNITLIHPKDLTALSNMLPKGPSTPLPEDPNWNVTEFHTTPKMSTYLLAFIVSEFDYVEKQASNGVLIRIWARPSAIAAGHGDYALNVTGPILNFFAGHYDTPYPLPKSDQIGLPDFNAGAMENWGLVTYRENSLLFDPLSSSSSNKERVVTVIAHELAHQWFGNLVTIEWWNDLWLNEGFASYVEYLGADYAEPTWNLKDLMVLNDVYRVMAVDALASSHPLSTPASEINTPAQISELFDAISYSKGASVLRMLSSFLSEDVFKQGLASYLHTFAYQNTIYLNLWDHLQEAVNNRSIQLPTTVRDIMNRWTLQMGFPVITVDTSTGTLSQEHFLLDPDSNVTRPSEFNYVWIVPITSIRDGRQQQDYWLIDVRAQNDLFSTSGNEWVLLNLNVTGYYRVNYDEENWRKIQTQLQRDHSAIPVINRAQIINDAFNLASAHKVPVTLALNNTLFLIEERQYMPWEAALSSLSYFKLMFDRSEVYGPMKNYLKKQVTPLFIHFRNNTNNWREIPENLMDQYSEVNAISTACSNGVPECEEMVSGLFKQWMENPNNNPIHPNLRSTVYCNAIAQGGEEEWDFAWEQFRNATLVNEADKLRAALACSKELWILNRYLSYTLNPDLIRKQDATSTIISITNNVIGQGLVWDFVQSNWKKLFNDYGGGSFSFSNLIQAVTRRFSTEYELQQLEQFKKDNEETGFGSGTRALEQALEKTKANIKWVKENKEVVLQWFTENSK
UniProt Q13367: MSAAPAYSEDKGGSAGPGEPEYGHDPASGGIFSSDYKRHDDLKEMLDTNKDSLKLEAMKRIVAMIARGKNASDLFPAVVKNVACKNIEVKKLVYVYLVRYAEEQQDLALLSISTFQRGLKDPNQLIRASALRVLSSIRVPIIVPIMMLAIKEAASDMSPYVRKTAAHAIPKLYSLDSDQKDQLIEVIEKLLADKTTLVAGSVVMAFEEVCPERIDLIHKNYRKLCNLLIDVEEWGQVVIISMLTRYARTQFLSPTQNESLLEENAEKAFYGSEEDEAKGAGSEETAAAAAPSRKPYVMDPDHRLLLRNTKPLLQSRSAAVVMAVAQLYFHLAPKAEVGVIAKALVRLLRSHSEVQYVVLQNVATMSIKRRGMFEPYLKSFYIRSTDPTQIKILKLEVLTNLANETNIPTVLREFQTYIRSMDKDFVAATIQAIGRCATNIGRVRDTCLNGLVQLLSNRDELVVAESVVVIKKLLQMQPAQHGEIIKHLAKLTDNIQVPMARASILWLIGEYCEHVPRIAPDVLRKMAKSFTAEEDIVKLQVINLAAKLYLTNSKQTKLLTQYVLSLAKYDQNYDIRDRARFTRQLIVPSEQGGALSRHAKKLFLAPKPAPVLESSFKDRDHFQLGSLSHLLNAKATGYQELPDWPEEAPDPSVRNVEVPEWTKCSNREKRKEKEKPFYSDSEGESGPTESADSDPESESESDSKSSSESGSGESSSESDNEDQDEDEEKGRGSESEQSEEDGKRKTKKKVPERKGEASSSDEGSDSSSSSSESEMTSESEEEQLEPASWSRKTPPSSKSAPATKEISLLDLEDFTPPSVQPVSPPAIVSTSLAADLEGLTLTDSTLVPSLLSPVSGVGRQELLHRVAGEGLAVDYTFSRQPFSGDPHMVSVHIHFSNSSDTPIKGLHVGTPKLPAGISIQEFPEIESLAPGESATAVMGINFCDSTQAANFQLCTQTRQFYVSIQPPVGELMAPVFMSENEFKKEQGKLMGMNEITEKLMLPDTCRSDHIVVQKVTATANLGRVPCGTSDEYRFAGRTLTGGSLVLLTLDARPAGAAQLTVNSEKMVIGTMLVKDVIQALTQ
UniProt Q8WVL7: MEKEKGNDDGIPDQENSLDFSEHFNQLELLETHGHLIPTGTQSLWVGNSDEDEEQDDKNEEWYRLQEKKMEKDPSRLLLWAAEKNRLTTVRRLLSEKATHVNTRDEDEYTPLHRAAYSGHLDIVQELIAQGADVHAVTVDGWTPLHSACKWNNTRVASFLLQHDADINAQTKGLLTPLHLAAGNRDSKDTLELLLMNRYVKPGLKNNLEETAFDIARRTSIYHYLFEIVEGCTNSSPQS

How the values were obtained:
Test in all cases: log2 fold change, soluble protein after heating vs DMSO (PISA); higher = thermal stabilisation; K562 lysate, 10 uM; active = over 0.2 and 3.5 SD of the protein, either way, in both replicates (recomputed)
lapatinib = compound: CS(=O)(=O)CCNCc1ccc(-c2ccc3ncnc(Nc4ccc(OCc5cccc(F)c5)c(Cl)c4)c3c2)o1 [lapatinib]
How it was run: (§1)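 The values are log-two fold changes in thermal stability compared with solvent controls and come from duplicates. They were obtained by TMTpro 16plex LC-MS/MS, with channel sums equalised, on the supernatant after 21,000xg for 90 min. That supernatant came from crude K562 extract at 1 mg/mL protein treated with 10 μM compound for 30 min, heated for 3 min across 48°C-58°C, pooled and brought to 0.5% NP-40 at 4°C.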

pictilisib = compound: CS(=O)(=O)N1CCN(Cc2cc3nc(-c4cccc5[nH]ncc45)nc(N4CCOCC4)c3s2)CC1 [pictilisib]
How it was run: as §1

crizotinib = compound: C[C@@H](Oc1cc(-c2cnn(C3CCNCC3)c2)cnc1N)c1c(Cl)ccc(F)c1Cl [crizotinib]
How it was run: as §1

[1] = compound: C[C@H](C1=CC=C(C=C1)C(=O)NC2=C3C=CNC3=NC=C2)N
How it was run: as §1

duvelisib = compound: C[C@H](Nc1ncnc2nc[nH]c12)c1cc2cccc(Cl)c2c(=O)n1-c1ccccc1 [duvelisib]
How it was run: as §1

gandotinib = compound: Cc1cc(Nc2cc(CN3CCOCC3)c3nc(C)c(Cc4ccc(Cl)cc4F)n3n2)n[nH]1 [gandotinib]
How it was run: as §1

tozasertib = compound: Cc1cc(Nc2cc(N3CCN(C)CC3)nc(Sc3ccc(NC(=O)C4CC4)cc3)n2)n[nH]1 [tozasertib]
How it was run: as §1

doramapimod = compound: Cc1ccc(-n2nc(C(C)(C)C)cc2NC(=O)Nc2ccc(OCCN3CCOCC3)c3ccccc23)cc1 [doramapimod]
How it was run: as §1

bafetinib = compound: Cc1ccc(NC(=O)c2ccc(CN3CC[C@H](N(C)C)C3)c(C(F)(F)F)c2)cc1Nc1nccc(-c2cncnc2)n1 [bafetinib]
How it was run: as §1

[2] = compound: Cc1cccc(CC(=O)N2CCc3c2ccc(-c2cn(C)c4ncnc(N)c24)c3F)n1
How it was run: as §1

nilotinib = compound: Cc1cn(-c2cc(NC(=O)c3ccc(C)c(Nc4nccc(-c5cccnc5)n4)c3)cc(C(F)(F)F)c2)cn1 [nilotinib]
How it was run: as §1

[3] = compound: Cc1nc(Nc2n[nH]c3c2CN(C(=O)N[C@H](CN(C)C)c2ccccc2)C3(C)C)c2sccc2n1
How it was run: as §1

dasatinib = compound: Cc1nc(Nc2ncc(C(=O)Nc3c(C)cccc3Cl)s2)cc(N2CCN(CCO)CC2)n1 [dasatinib]
How it was run: as §1

[4] = compound: Cc1ncc(-c2ccnc(Nc3ccc(S(C)(=O)=O)cc3)n2)n1C(C)C
How it was run: as §1

[5] = compound: Cn1cc(-c2ccc3c(c2)CCN3C(=O)Cc2cccc(C(F)(F)F)c2)c2c(N)ncnc21
How it was run: as §1

quisinostat = compound: Cn1cc(CNCC2CCN(c3ncc(C(=O)NO)cn3)CC2)c2ccccc21 [quisinostat]
How it was run: as §1

tipifarnib = compound: Cn1cncc1[C@@](N)(c1ccc(Cl)cc1)c1ccc2c(c1)c(-c1cccc(Cl)c1)cc(=O)n2C [tipifarnib]
How it was run: as §1

[6] = compound: NC(=O)Nc1cc(-c2cccc(F)c2)sc1C(=O)N[C@H]1CCCNC1
How it was run: as §1

[7] = compound: NC(=O)c1cnc(N[C@@H]2CCCC[C@@H]2N)nc1Nc1cccc(-n2nccn2)c1
How it was run: as §1

[8] = compound: NC1(c2ccc(-c3nc4ccn5c(=O)[nH]nc5c4cc3-c3ccccc3)cc2)CCC1
How it was run: as §1

Measured: log2 fold change

ANXA6 (UniProt P08133)
inactive: lapatinib 0.006 | pictilisib -0.034 | crizotinib -0.014 | [1] -0.091 | duvelisib 0.005 | gandotinib 0.014 | tozasertib 0.044 | doramapimod 0.022 | bafetinib -0.051 | [2] 0.084 | nilotinib -0.019 | [3] 0.004 | dasatinib -0.016 | [4] -0.015 | [5] 0.047 | quisinostat 0.003 | tipifarnib 0.003 | [6] 0.02 | [7] 0.007 | [8] 0.041

AP2A1 (UniProt O95782)
inactive: lapatinib -0.014 | pictilisib 0.019 | crizotinib -0.012 | [1] -0.1 | duvelisib 0.002 | gandotinib 0.102 | tozasertib 0.016 | doramapimod 0.043 | bafetinib -0.009 | [2] 0.009 | nilotinib -0.008 | [3] 0.011 | dasatinib -0.015 | [4] 0.027 | [5] -0.023 | quisinostat -0.027 | tipifarnib 0.001 | [6] -0.027 | [7] 0 | [8] -0.006

AP1B1 (UniProt Q10567)
inactive: lapatinib 0.004 | pictilisib -0.017 | crizotinib -0.009 | [1] -0.021 | duvelisib -0.011 | gandotinib 0.027 | tozasertib -0.012 | doramapimod 0.06 | bafetinib -0.03 | [2] 0.009 | nilotinib 0.027 | [3] -0.009 | dasatinib 0.02 | [4] -0.009 | [5] -0.008 | quisinostat -0.034 | tipifarnib 0.015 | [6] 0.006 | [7] -0.012 | [8] 0.015

AP4B1 (UniProt Q9Y6B7)
inactive: lapatinib 0.064 | pictilisib -0.142 | crizotinib 0.025 | [1] -0.106 | duvelisib -0.058 | gandotinib -0.023 | tozasertib -0.011 | doramapimod 0.019 | bafetinib -0.079 | [2] 0.135 | nilotinib 0.023 | [3] 0.011 | dasatinib 0.032 | [4] -0.013 | [5] 0.027 | quisinostat 0.018 | tipifarnib -0.051 | [6] 0.1 | [7] 0.028 | [8] 0.007

ALKBH4 (UniProt Q9NXW9)
inactive: lapatinib -0.02 | pictilisib 0.003 | crizotinib 0.04 | [1] -0.055 | duvelisib 0.035 | gandotinib -0.019 | tozasertib 0.047 | doramapimod -0.018 | bafetinib -0.108 | [2] -0.028 | nilotinib -0.053 | [3] -0.05 | dasatinib -0.028 | [4] -0.008 | [5] 0.007 | quisinostat -0.01 | tipifarnib 0.023 | [6] 0.023 | [7] -0.013 | [8] 0.047

AMD1 (UniProt P17707)
inactive: lapatinib -0.125 | pictilisib 0.056 | crizotinib 0.035 | [1] -0.099 | duvelisib 0.12 | gandotinib 0.107 | tozasertib 0.05 | doramapimod 0.316 | bafetinib -0.07 | [2] 0.048 | nilotinib -0.05 | [3] -0.04 | dasatinib -0.031 | [4] -0.001 | [5] 0.055 | quisinostat -0.145 | tipifarnib -0.005 | [6] 0.151 | [7] 0.229 | [8] -0.022

ALDH9A1 isoform 3 (UniProt P49189)
inactive: lapatinib 0.027 | pictilisib 0.01 | crizotinib 0.036 | [1] 0.079 | duvelisib 0.017 | gandotinib -0.003 | tozasertib -0.018 | doramapimod -0.07 | bafetinib 0.012 | [2] -0.024 | nilotinib 0.023 | [3] -0.008 | dasatinib -0.02 | [4] 0.012 | [5] -0.036 | quisinostat 0.095 | tipifarnib 0.02 | [6] 0.015 | [7] -0.004 | [8] 0.003

Taken from the entries so far (2 entries):
AP1B1 (UniProt Q10567)
inactive: lapatinib 0.004 | pictilisib -0.017 | crizotinib -0.009 | [1] -0.021 | duvelisib -0.011 | gandotinib 0.027 | tozasertib -0.012 | doramapimod 0.06 | bafetinib -0.03 | [2] 0.009 | nilotinib 0.027 | [3] -0.009 | dasatinib 0.02 | [4] -0.009 | [5] -0.008 | quisinostat -0.034 | tipifarnib 0.015 | [6] 0.006 | [7] -0.012 | [8] 0.015

AP4B1 (UniProt Q9Y6B7)
inactive: lapatinib 0.064 | pictilisib -0.142 | crizotinib 0.025 | [1] -0.106 | duvelisib -0.058 | gandotinib -0.023 | tozasertib -0.011 | doramapimod 0.019 | bafetinib -0.079 | [2] 0.135 | nilotinib 0.023 | [3] 0.011 | dasatinib 0.032 | [4] -0.013 | [5] 0.027 | quisinostat 0.018 | tipifarnib -0.051 | [6] 0.1 | [7] 0.028 | [8] 0.007

Next part:

ALDOA (UniProt P04075)
inactive: lapatinib 0.025 | pictilisib 0 | crizotinib 0.006 | [1] -0.032 | duvelisib -0.015 | gandotinib 0.052 | tozasertib -0.002 | doramapimod 0.019 | bafetinib 0.043 | [2] 0.02 | nilotinib 0.017 | [3] -0.012 | dasatinib 0.011 | [4] 0.001 | [5] -0.063 | quisinostat -0.004 | tipifarnib 0.004 | [6] -0.015 | [7] -0.027 | [8] 0.009

ALAD (UniProt P13716)
inactive: lapatinib 0.013 | pictilisib -0.007 | crizotinib -0.001 | [1] 0.002 | duvelisib 0.023 | gandotinib 0.031 | tozasertib -0.002 | doramapimod -0.008 | bafetinib 0.038 | [2] -0.027 | nilotinib 0.002 | [3] -0.001 | dasatinib 0.028 | [4] 0.008 | [5] -0.044 | quisinostat -0.017 | tipifarnib -0.02 | [6] -0.007 | [7] -0.028 | [8] 0.013

ANAPC1 (UniProt Q9H1A4)
inactive: lapatinib -0.017 | pictilisib -0.016 | crizotinib -0.045 | [1] -0.053 | duvelisib 0.005 | gandotinib -0.001 | tozasertib -0.008 | doramapimod 0.021 | bafetinib -0.041 | [2] 0.07 | nilotinib 0.017 | [3] -0.016 | dasatinib -0.011 | [4] -0.016 | [5] 0.011 | quisinostat -0.028 | tipifarnib 0 | [6] 0.031 | [7] -0.002 | [8] -0.015

AMMECR1 (UniProt Q9Y4X0)
inactive: lapatinib 0.005 | pictilisib -0.013 | crizotinib -0.011 | [1] -0.027 | duvelisib 0.022 | gandotinib -0.019 | tozasertib 0.039 | doramapimod -0.009 | bafetinib -0.04 | [2] 0.037 | nilotinib -0.005 | [3] -0.025 | dasatinib -0.037 | [4] 0.017 | [5] 0.035 | quisinostat -0.054 | tipifarnib 0.022 | [6] 0.021 | [7] 0.007 | [8] -0.024

AP1G1 isoform 2 (UniProt O43747)
inactive: lapatinib -0.007 | pictilisib -0.022 | crizotinib -0.048 | [1] -0.088 | duvelisib -0.012 | gandotinib 0.053 | tozasertib -0.01 | doramapimod 0.016 | bafetinib -0.038 | [2] 0.034 | nilotinib -0.002 | [3] 0 | dasatinib 0.03 | [4] 0.003 | [5] -0.016 | quisinostat -0.055 | tipifarnib -0.004 | [6] -0.007 | [7] -0.002 | [8] -0.012

ANP32E (UniProt Q9BTT0)
inactive: lapatinib -0.026 | pictilisib 0.003 | crizotinib 0.007 | [1] -0.017 | duvelisib 0.015 | gandotinib 0.013 | tozasertib 0.041 | doramapimod -0.017 | bafetinib -0.003 | [2] -0.032 | nilotinib 0.075 | [3] 0.025 | dasatinib 0.015 | [4] 0.028 | [5] -0.038 | quisinostat 0.016 | tipifarnib -0.02 | [6] -0.011 | [7] -0.065 | [8] 0.023

ANPEP (UniProt P15144)
inactive: lapatinib -0.049 | pictilisib 0 | crizotinib 0.019 | [1] -0.19 | duvelisib -0.035 | gandotinib 0.055 | tozasertib 0.068 | doramapimod -0.044 | bafetinib -0.1 | [2] 0.078 | nilotinib 0 | [3] -0.068 | dasatinib -0.019 | [4] 0.124 | [5] -0.029 | quisinostat 0.008 | tipifarnib 0.116 | [6] 0.04 | [7] -0.009 | [8] -0.011

AP3B2 isoform 4 (UniProt Q13367)
inactive: lapatinib 0.011 | pictilisib -0.021 | crizotinib -0.005 | [1] -0.058 | duvelisib -0.04 | gandotinib 0.055 | tozasertib 0.021 | doramapimod 0.07 | bafetinib -0.004 | [2] 0.06 | nilotinib 0.005 | [3] -0.027 | dasatinib 0.021 | [4] 0.021 | [5] -0.01 | quisinostat -0.001 | tipifarnib -0.03 | [6] -0.015 | [7] -0.004 | [8] -0.002

ANKRD49 (UniProt Q8WVL7)
inactive: lapatinib 0 | pictilisib -0.015 | crizotinib -0.01 | [1] 0.046 | duvelisib 0.003 | gandotinib 0.048 | tozasertib 0.107 | doramapimod 0.056 | bafetinib 0.013 | [2] 0.081 | nilotinib 0.029 | [3] -0.022 | dasatinib 0.027 | [4] -0.021 | [5] -0.001 | quisinostat -0.056 | tipifarnib -0.004 | [6] 0.011 | [7] 0.007 | [8] 0.032
